Experimental data: patent US20240043512A1
These are yes or no findings as the source states them, for the method shown. Some binding calls cover weakened binding; strength is not graded here.

T1: AS-SPIK (Abnormal Secreted SPIK), native, purified from the medium of S2-3 cells (human) (UniProt P00995)
T1 sequence: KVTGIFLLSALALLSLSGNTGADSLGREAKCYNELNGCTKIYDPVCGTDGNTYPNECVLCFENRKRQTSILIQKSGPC


What was measured:
[1] = target: T1, AS-SPIK (Abnormal Secreted SPIK), native, purified from the medium of S2-3 cells (human); test: binding test (FIG. 5)
[2] = target: T1, AS-SPIK (Abnormal Secreted SPIK), native, purified from the medium of S2-3 cells (human); test: ELISA, plate coated with native AS-SPIK, HRP-labelled antibody
[3] = target: T1, AS-SPIK (Abnormal Secreted SPIK), native, purified from the medium of S2-3 cells (human); test: sandwich ELISA on native AS-SPIK from S2-3 cells, capture antibody and HRP-labelled signal antibody

binding [1]	binding [2]	binding [3]	Binder
binds	binds	binds	IM-C6 (antibody, V domains shown) VH: QSVKESEGGLFKPTDALTLTCTVSGFSLSSYAISWVRQAPGSGLEWIGAINTYGGTYYASWAKSRSTITRNTNENTVTLKMTSLTAADTATYFCARDFDSDAYTSASGGMDWGPGTLVTVSS VL: AYDMTQTPASVEVAVGGTVTIKCQASQSINNYLSWYQQIPGQPPKLLIYRASTLASGVSSRFKGSGSGTQFTLTISGVQCADAATYYCQQGYTSNVDNVFGGGTEVVVKG
binds	binds	binds	IM-A1 (antibody, V domains shown) VH: QSVKESEGGLFKPTDTLTLTCTVSGFSLSSNAISWVRQAPGNGLEWIGAIGSSGSTYYASWAKSRSTVTRNTNLNTVTLKMTSLTAADTATYFCARWENIGYTNVRLDLWGQGTLVTVSS VL: AYDMTQTPASVEVAVGGTVTIKCQASQSISTALAWYQQKPGQPPKLLIYGASTLASGVSSRFKGSGSGTQFTLTISGVECADAATYYCQQGYSTSDVDNAFGGGTEG
binds	binds	binds	IM-B10 (antibody, V domains shown) VH: QSVKESEGGLFKPTDTLTLTCTVSGFSLSSYGVSWVRQAPGKGLEWIGSIWSGGTTDYASWAKSRSTITRNTNENTVTLKVTSLTAADTATYFCARGGYDYGYASNIWGPGTLVTVSS VL: AYDMTQTPASVEVAVGGTVTIKCQASESISSYLSWYQQKPGQPPKLLIYRASTLASGVPSRFSGSGSGTEFTLTISDGQCDDAATYYCQQGYSVSNVDNIFGGGTEVVVKG
binds	binds	binds	IM-E2 (antibody, V domains shown) VH: QSVKESEGGLFKPTDTLTLTCTVSGFSLSAYAISWVRQAPGNGLEWIGAINSGGSAYYANWAKSRSTITRNTNLNTVTLKMTSLTAADTATYFCAREDIYDYGGAFDPWGPGTLVTVST VL: AYDMTQTPASVEVTVGGTVTIKCQASQGISSYLSWYQQKPGQPPKLLIYAATTLVSGVSSRFKGSGSGTQFTLTISGVECADAATYYCQQDYTTSNVDNTFGGGTEVVVKG
